Reference: US5556836 (dated 1996)

Test: general procedure: solution-phase peptide synthesis; EDCI/HOBT/NMM (also HOOBT; TBTU/HOBT/DIPEA for cyclisation; DCC for D-22620)
Conditions: trifluoroacetate

| Substance | step yield (coupling step) | also measured |
| --- | --- | --- |
| pGlu-His-Trp-Ser-Zu-Leu-Arg-Pro-Gly-NH2 |  | step yield (late stage modification step): 67% |
| pGlu-His(Trt)-Trp-Ser-Zu-Leu-Arg-(Pmc)-Pro-Gly-NH2 | 63% |  |
| Ac-D-(2-Nal)-p-Cl-D-Phe-D-(3-Pal)-Ser-Tyr-Zu-Leu-OMe | 80% |  |
| Ac-D-(2-Nal)-p-Cl-D-Phe-D-(3-Pal)-Ser-Tyr-D-Lys(Zu)-Leu-Arg-Pro-D-AlaNH2.-TFA |  | conjugation yield (conjugation step): 27% |
| Z-Trp-Ser-Zu-Leu-Arg(Pmc)-Pro-Gly-NH2 | 50% |  |
| cyclo(-Zu-Phe-D-Trp-Lys-Thr) |  | cyclisation yield (cyclisation step): 54% |
| Z-Trp-Ser-Zu-Leu-OMe | 63% |  |
| Z-Ser-Tyr-Zu-Leu-OMe | 72% |  |
| Boc-Lys (Z) -Thr-Zu-Phe-D-Trp-OMe | 80% |  |
